Test results: patent US20240010722A1
No constants are given. Whether binding was seen depends on the method and setting. Some binding calls cover weakened binding; strength is not graded here.

Protein sequences, listed by entry. Tags and fused reporters are not part of them. Residues count along the entry.
UniProt Q61826, residues 22-405: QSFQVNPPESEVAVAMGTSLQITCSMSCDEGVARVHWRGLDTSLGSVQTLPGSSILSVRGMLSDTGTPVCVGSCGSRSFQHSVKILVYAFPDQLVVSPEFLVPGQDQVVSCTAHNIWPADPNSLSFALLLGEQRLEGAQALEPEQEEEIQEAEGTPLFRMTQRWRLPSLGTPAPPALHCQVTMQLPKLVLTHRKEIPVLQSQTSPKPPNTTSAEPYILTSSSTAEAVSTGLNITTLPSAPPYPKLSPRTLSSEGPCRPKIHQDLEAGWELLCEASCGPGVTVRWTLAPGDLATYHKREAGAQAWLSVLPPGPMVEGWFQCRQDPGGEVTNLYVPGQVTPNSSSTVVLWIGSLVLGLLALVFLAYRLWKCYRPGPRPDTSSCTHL

Legend:
[1] = biological target: T1, human MAdCAM on CHO cells (human) (UniProt Q13477); test: flow cytometry on CHO cells
T1 sequence (looked up): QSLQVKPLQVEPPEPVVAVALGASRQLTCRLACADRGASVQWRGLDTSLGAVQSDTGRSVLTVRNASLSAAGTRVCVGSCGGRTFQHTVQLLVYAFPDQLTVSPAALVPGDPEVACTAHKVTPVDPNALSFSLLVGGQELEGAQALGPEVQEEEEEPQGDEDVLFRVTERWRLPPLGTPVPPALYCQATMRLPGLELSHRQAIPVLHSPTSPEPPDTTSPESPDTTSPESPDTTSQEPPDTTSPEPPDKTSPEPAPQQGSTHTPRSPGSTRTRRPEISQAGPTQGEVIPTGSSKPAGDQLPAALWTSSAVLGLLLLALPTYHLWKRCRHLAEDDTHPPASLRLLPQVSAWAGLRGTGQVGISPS

[2] = biological target: murine MAdCAM on cells (mouse) (UniProt Q61826); test: flow cytometry on CHO cells

binding [1]: binds
binding [2]: binds
B1: MIAB197 (antibody, V domains shown)
VH: EVQLLESGGGLVQPGGSLRLSCAASGFTFSDFWMHWVRQAPGKGLEWISYISGDSGYTNYADSVKGRFTISRDNSKNTLYLQMNSLRAEDTAVYYCARDRPYYYIMDVWGKGTTVTVSS
VL: DIQMTQSPSSLSASVGDRVTITCRASQSISRSLAWYQQKPGKAPKLLIYAASSLQSGVPSRFSGSGSGTDFTLTISSLQPEDFATYYCQQYKSYPVTFGQGTKVEIK
